Data from article PMC7275032.
No constants are given. Whether binding was seen depends on the method and setting. In cells and extracts the contact can be indirect. Some binding calls cover weakened binding; strength is not graded here.

Target: SPA-2 (polarisome protein) (N. crassa) (UniProt V5IQM7)
Assay: co-IP; heterokaryons with mGFP- and HA-tagged versions of one protein in the deletion background of the other (SPA-2 in the absence of JNS-1, JNS-1 in the absence of SPA-2); precipitation with anti-GFP antibodies, HA-tagged version detected

B1: SPA-2 (polarisome protein) (protein, UniProt V5IQM7 1-888)
chain: MNVRNAPLSPISQGAPSDWNHPPNDNNLGQYNTPPDSANPAGAMNGGFSPMPQSPNGAPSPPPSVGRSSTGMYARSVKSQSQQGENQELVLSDHYISLKRYLSATSRDGNPKPPPNKARDKLQRLTEVQFLELSTDVYDELKRREQVARRGPNAPPETAPPDFLLPQDNFHPKRNQARQKLSSLGPPRFRDLATDVFCELERRYPNFANLEMPLNASPIAMRGPPSRSGTPNNGMGGFPPRGQSHRRPSEASSVRSARSGPPMPPMMNGGYGVPPSPGLPPNGDYGRPMPKQFQSNTIVPNKSTMVEEDDEGNLMSPGQGGDMYGNGRRSMGQAFEADRKLIQDYENQVRELQEKVDNMEMEMRKKDEELNNMQSGDGNKKDWDETRQSLETKLAEAQELNDSLQRELDRIREEHEDETRKLREGLEDGRQSGGKGDGDLARENEELRQSLQEQQQITDEVRREAQEFLREMRTLSQQSGAAWERQTELERTIESLEKEVKEWRSRYARTQTQLRSMRDSSEGVPLEQNAGKYVREKGFVEDSGLVKDLHVTKFQIAIDELLQRARNDNPERVIDSMKAVVVSVRRIAKDIDENPQNDSILQEKAKLKARVSSTANNLITASKNFASSAGISPVSLLDAAASHLVAAVIELLRAAKIRTTPAGELEEEDDGTVTPVGSASFFSPRNGQSQTSSVASAHEVLAQPPAFQGLGGGGGSRISVDSSAYSANSPRESYAESKPTAPDPRRVEDLKFYLQDKTSVMVETIQNLVQLIRSDANINQLSGEIAIITDVVSKVVAETDSCLGSSASSTVVDVVRRLSKCSDRLNEAGQHGIDLDAQGSSPTSREWRMWAQTLPPIAFELARDTKELVQQVDRLAAAGMNDGADDFA
For B1, the binding was “binds”.
